Values of other authors, collected in US20210369753A1, “NUTRIENT COMPOSITION ABLE TO INHIBIT QUORUM SENSING” (Brilliant Lab LLC, priority 2020, published 2021).
For at least one compound, name, drawing or mass did not settle the structure.

Tested on: E. coli
Conditions: strain not stated; cited from earlier work

## C[C@@H]1O[C@@H](OC[C@H]2O[C@@H](Oc3c(-c4ccc(O)c(O)c4)oc4cc(O)cc(O)c4c3=O)[C@H](O)[C@@H](O)[C@@H]2O)[C@H](O)[C@H](O)[C@H]1O [Rutin]
  inhibition of quorum sensing: inhibits quorum sensing
